Source: PubChem BioAssay AID1159584 (Peter MacCallum Cancer Centre, 2016)
Shown is an unselected part of about 18,000 reagents. Further read-outs or replicates are left out here. Not given: the amount of reagent, the time to read-out.

- Test: 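Genes that CDH1-null MCF10A cells selectively depend on to survive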 (primary screen)
- System: human MCF10A breast epithelial cells, parental and CDH1-null
- Knock-down reagent: siRNA against human genes
- Detection: 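ATP luminescence (CellTiter-Glo) viability per line relative to mean mock wells over all plates, and the ratio of CDH1-null to parental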
- Direction: CDH1-null / parental viability ratio: higher = CDH1-null cells survive relatively better than parental; CDH1-null viability vs mock: higher = more viable CDH1-null cells

Against GPR174 (GeneID 84636) the deposit lists CDH1-null / parental viability ratio 1.52; CDH1-null viability vs mock (fraction of mock) = 0.91.
With knock-down of PPP1R35 (GeneID 221908), the record shows CDH1-null / parental viability ratio 0.96; CDH1-null viability vs mock (fraction of mock) = 0.82.
Depletion of RTN4RL1 (GeneID 146760) resulted in: CDH1-null / parental viability ratio 0.99; CDH1-null viability vs mock (fraction of mock) = 0.66.
After knock-down of LDOC1 (GeneID 23641), the screen gave CDH1-null / parental viability ratio 0.92; CDH1-null viability vs mock (fraction of mock) = 0.57.
Depletion of PPIL1 (GeneID 51645) gave: CDH1-null / parental viability ratio 1.3; CDH1-null viability vs mock (fraction of mock) = 0.78.
Against KAT2B (GeneID 8850) the deposit lists CDH1-null / parental viability ratio 1; CDH1-null viability vs mock (fraction of mock) = 1.04.
For FNDC3B (GeneID 64778), the values are CDH1-null / parental viability ratio 0.75; CDH1-null viability vs mock (fraction of mock) = 0.57.
Knock-down of CRNKL1 (GeneID 51340) gave: CDH1-null / parental viability ratio 0.72; CDH1-null viability vs mock (fraction of mock) = 0.29.
For R3HCC1L (GeneID 27291), the values are CDH1-null / parental viability ratio 1.34; CDH1-null viability vs mock (fraction of mock) = 0.79.
Against PAQR8 (GeneID 85315), the values are CDH1-null / parental viability ratio 1.09; CDH1-null viability vs mock (fraction of mock) = 0.48.
After knock-down of MICU1 (GeneID 10367) the results were CDH1-null / parental viability ratio 0.83; CDH1-null viability vs mock (fraction of mock) = 0.52.
GLRX3 (GeneID 10539) gave CDH1-null / parental viability ratio 0.68; CDH1-null viability vs mock (fraction of mock) = 0.7.
Silencing of ATP6V0D1 (GeneID 9114) gave: CDH1-null / parental viability ratio 0.97; CDH1-null viability vs mock (fraction of mock) = 0.84.
Depletion of SLC5A8 (GeneID 160728) gave: CDH1-null / parental viability ratio 1.24; CDH1-null viability vs mock (fraction of mock) = 1.09.
Against CYP17A1 (GeneID 1586), the values are CDH1-null / parental viability ratio 1.08; CDH1-null viability vs mock (fraction of mock) = 0.7.
Silencing of PSMA7 (GeneID 5688) gave: CDH1-null / parental viability ratio 1.44; CDH1-null viability vs mock (fraction of mock) = 0.62.
OR56A3 (GeneID 390083) showed CDH1-null / parental viability ratio 0.84; CDH1-null viability vs mock (fraction of mock) = 0.82.
Knock-down of HAUS4 (GeneID 54930) gave: CDH1-null / parental viability ratio 0.9; CDH1-null viability vs mock (fraction of mock) = 0.77.
SCN2B (GeneID 6327) showed CDH1-null / parental viability ratio 1.08; CDH1-null viability vs mock (fraction of mock) = 0.82.
Against KRT6A (GeneID 3853), the entry reads CDH1-null / parental viability ratio 1.22; CDH1-null viability vs mock (fraction of mock) = 0.84.
For OR13C2 (GeneID 392376), the entry reads CDH1-null / parental viability ratio 0.93; CDH1-null viability vs mock (fraction of mock) = 1.15.
For NAPA (GeneID 8775), the values are CDH1-null / parental viability ratio 0.6; CDH1-null viability vs mock (fraction of mock) = 0.3.
For IRF4 (GeneID 3662), the entry reads CDH1-null / parental viability ratio 1.06; CDH1-null viability vs mock (fraction of mock) = 0.9.
With knock-down of KIF20B (GeneID 9585), the record shows CDH1-null / parental viability ratio 1.03; CDH1-null viability vs mock (fraction of mock) = 1.15.
Silencing of PCDHB7 (GeneID 56129) resulted in: CDH1-null / parental viability ratio 1.16; CDH1-null viability vs mock (fraction of mock) = 0.52.
MAJIN (GeneID 283129) gave CDH1-null / parental viability ratio 0.78; CDH1-null viability vs mock (fraction of mock) = 0.72.
Depletion of CBFA2T3 (GeneID 863) gave: CDH1-null / parental viability ratio 0.74; CDH1-null viability vs mock (fraction of mock) = 0.42.
Knock-down of SLC17A3 (GeneID 10786) came out at: CDH1-null / parental viability ratio 1.19; CDH1-null viability vs mock (fraction of mock) = 0.74.
Silencing of S100A16 (GeneID 140576) gave: CDH1-null / parental viability ratio 0.76; CDH1-null viability vs mock (fraction of mock) = 0.67.
Against GCDH (GeneID 2639), the entry reads CDH1-null / parental viability ratio 0.96; CDH1-null viability vs mock (fraction of mock) = 0.9.
Silencing of OR5H14 (GeneID 403273) came out at: CDH1-null / parental viability ratio 0.78; CDH1-null viability vs mock (fraction of mock) = 0.53.
Knock-down of CSKMT (GeneID 751071) resulted in: CDH1-null / parental viability ratio 1.1; CDH1-null viability vs mock (fraction of mock) = 0.66.
Knock-down of ADAMTSL5 (GeneID 339366) gave: CDH1-null / parental viability ratio 1.05; CDH1-null viability vs mock (fraction of mock) = 0.8.
KLF14 (GeneID 136259) showed CDH1-null / parental viability ratio 0.98; CDH1-null viability vs mock (fraction of mock) = 0.82.
Silencing of IL1RAP (GeneID 3556) resulted in: CDH1-null / parental viability ratio 1.14; CDH1-null viability vs mock (fraction of mock) = 1.05.

Part of the list above, reformatted.
{"Gene": "CYP17A1 (GeneID 1586)", "CDH1-null / parental viability ratio": 1.08, "CDH1-null viability vs mock (fraction of mock)": 0.7}
{"Gene": "PSMA7 (GeneID 5688)", "CDH1-null / parental viability ratio": 1.44, "CDH1-null viability vs mock (fraction of mock)": 0.62}
{"Gene": "OR56A3 (GeneID 390083)", "CDH1-null / parental viability ratio": 0.84, "CDH1-null viability vs mock (fraction of mock)": 0.82}
